Structures can show the parent of a compound that is named as a salt. Where two headings read alike, the source gives them in different places. Some of these results come from one statement about several compounds together. For at least one compound, name, drawing or mass did not settle the structure.
Assays:
Type in all cases: in vivo
[1] = system: diamondback moth (Plutella xylostella); test: Test A: control of diamondback moth on radish plant, foliar spray; conditions: 6 days, very good to excellent levels of control efficacy
[2] = system: fall armyworm (Spodoptera frugiperda); test: Test B: control of fall armyworm on maize plant, foliar spray; conditions: very good to excellent levels of control efficacy
[3] = system: potato leafhopper (Empoasca fabae); conditions: 6 days, Soleil bean plant, very good to excellent levels of control efficacy
Procedure: For evaluating control of potato leafhopper (Empoasca fabae) through contact and/or systemic means, the test unit consisted of a small open container with a 5-6-day-old Soleil bean plant (primary leaves emerged) inside. White sand was added to the top of the soil and one of the primary leaves was excised prior to application.
Test compounds were formulated and sprayed at 50 ppm and/or 10 ppm, and the tests were replicated three times as described for Test A. After spraying, the test units were allowed to dry for 1 h before they were post-infested with 5 potato leafhoppers (18-21-day-old adults). A black, screened cap was placed on the top of each test unit, and the test units were held for 6 days in a growth chamber at 24° C. and 70% relative humidity. Each test unit was then visually assessed for insect mortality.

Structure (SMILES)	control efficacy: feeding damage (40% or less feeding damage and/or 100% mortality) ([1]; sprayed at 10 ppm)	control efficacy: feeding damage (40% or less feeding damage and/or 100% mortality) ([1]; sprayed at 50 ppm)	control efficacy: feeding damage (40% or less feeding damage and/or 100% mortality) ([2]; sprayed at 10 ppm)	control efficacy: feeding damage (40% or less feeding damage and/or 100% mortality) ([2]; sprayed at 50 ppm)	control efficacy: mortality ([3]; sprayed at 50 ppm)	control efficacy: mortality ([3]; sprayed at 10 ppm)
O=c1c(-c2cc(Cl)cc(C(F)(F)F)c2)c([O-])[n+](Cc2cnc(Cl)s2)c2c(Br)cccn12 [Compound 20, 9-bromo-1-[(2-chloro-5-thiazolyl)methyl]-3-[3-chloro-5-(trifluoromethyl)phenyl]-2-hydroxy-4-oxo-4H-pyrido[1,2-a]pyrimidinium inner salt]	≤ 40%	≤ 40%	≤ 40%	≤ 40%	≥ 80%	
O=c1c(-c2cccc(OC(F)(F)F)c2)c([O-])[n+](Cc2cnc(Cl)s2)c2c(Cl)cccn12 [Compound 23, 9-chloro-1-[(2-chloro-5-thiazolyl)methyl]-2-hydroxy-4-oxo-3-[3-(trifluoromethoxy)phenyl]-4H-pyrido[1,2-a]pyrimidinium inner salt]	≤ 40%	≤ 40%	≤ 40%	≤ 40%	≥ 80%	
Cc1cccn2c(=O)c(-c3ccc(SC(F)(F)F)cc3)c([O-])[n+](Cc3cnc(Cl)s3)c12 [Compound 58, 1-[(2-chloro-5-thiazolyl)methyl]-2-hydroxy-9-methyl-4-oxo-3-[4-[(trifluoromethyl)thio]phenyl]-4H-pyrido[1,2-a]pyrimidinium inner salt]	≤ 40%	≤ 40%	≤ 40%	≤ 40%	≥ 80%	
COc1cccn2c(=O)c(-c3cccc(C(F)(F)F)c3F)c([O-])[n+](Cc3cnc(Cl)s3)c12 [Compound 66]	≤ 40%	≤ 40%	≤ 40%	≤ 40%	≥ 80%	≥ 80%
COc1cccc(-c2c([O-])[n+](Cc3cnc(Cl)s3)c3c(C)cccn3c2=O)c1F [Compound 104]	≤ 40%	≤ 40%		≤ 40%	≥ 80%	≥ 80%
Cc1cccn2c(=O)c(-c3ccc(Cl)cc3)c([O-])[n+](Cc3cnc(Cl)s3)c12 [Compound 105]	≤ 40%	≤ 40%	≤ 40%	≤ 40%	≥ 80%	≥ 80%
Cc1cccn2c(=O)c(-c3ccc4c(c3)OCO4)c([O-])[n+](Cc3cnc(Cl)s3)c12 [Compound 106]	≤ 40%	≤ 40%		≤ 40%	≥ 80%	≥ 80%
Cc1cccn2c(=O)c(-c3cc(F)c(F)c(F)c3)c([O-])[n+](Cc3cnc(Cl)s3)c12 [Compound 110]	≤ 40%	≤ 40%		≤ 40%	≥ 80%	
COc1ccc(-c2c([O-])[n+](Cc3cnc(Cl)s3)c3c(C)cccn3c2=O)c(F)c1 [Compound 111]	≤ 40%	≤ 40%		≤ 40%	≥ 80%	≥ 80%
COc1cc(-c2c([O-])[n+](Cc3cnc(Cl)s3)c3c(C)cccn3c2=O)ccc1F [Compound 112]	≤ 40%	≤ 40%		≤ 40%	≥ 80%	
Cc1cccn2c(=O)c(-c3cc(Cl)cc(Cl)c3)c([O-])[n+](Cc3cnc(Cl)s3)c12 [Compound 113]	≤ 40%	≤ 40%	≤ 40%	≤ 40%	≥ 80%	≥ 80%
COc1ccc(-c2c([O-])[n+](Cc3cnc(Cl)s3)c3c(C)cccn3c2=O)cc1 [Compound 115]	≤ 40%	≤ 40%	≤ 40%	≤ 40%	≥ 80%	≥ 80%
COc1ccc(-c2c([O-])[n+](Cc3cnc(Cl)s3)c3c(C)cccn3c2=O)cc1F [Compound 117]	≤ 40%	≤ 40%		≤ 40%	≥ 80%	
Cc1cccn2c(=O)c(-c3cccc(Cl)c3)c([O-])[n+](Cc3cnc(Cl)s3)c12 [Compound 118]	≤ 40%	≤ 40%	≤ 40%	≤ 40%	≥ 80%	≥ 80%
Cc1cccn2c(=O)c(-c3ccc(F)c(F)c3)c([O-])[n+](Cc3cnc(Cl)s3)c12 [Compound 119]	≤ 40%	≤ 40%		≤ 40%	≥ 80%	≥ 80%
Cc1cccn2c(=O)c(-c3ccc(F)c(C(F)(F)F)c3)c([O-])[n+](Cc3cnc(Cl)s3)c12 [Compound 120]	≤ 40%	≤ 40%	≤ 40%	≤ 40%	≥ 80%	≥ 80%
C=CCc1c([O-])[n+](Cc2cnc(Cl)s2)c2c(C)cccn2c1=O [Compound 295]	≤ 40%	≤ 40%			≥ 80%	≥ 80%
Cc1cccn2c(=O)c(-c3cc(-c4ccc(C(F)(F)F)nc4)ccc3Cl)c([O-])[n+](Cc3cnc(Cl)s3)c12 [Compound 302]	≤ 40%	≤ 40%			≥ 80%	≥ 80%
Cc1cccn2c(=O)c(-c3ccccc3C#N)c([O-])[n+](Cc3cnc(Cl)s3)c12 [Compound 312]	≤ 40%	≤ 40%			≥ 80%	≥ 80%
Cc1cccn2c(=O)c(-c3cc(C#N)ccc3F)c([O-])[n+](Cc3cnc(Cl)s3)c12 [Compound 324]	≤ 40%				≥ 80%	≥ 80%
Cc1cc(C(F)(F)F)ccc1-c1ccc(Cl)c(-c2c([O-])[n+](Cc3cnc(Cl)s3)c3c(C)cccn3c2=O)c1 [Compound 328]	≤ 40%				≥ 80%	
Cc1cccn2c(=O)c(-c3cc(Br)ccc3Cl)c([O-])[n+](Cc3cnc(Cl)s3)c12 [Compound 342]	≤ 40%				≥ 80%	≥ 80%
CC(=O)c1cccc(-c2c([O-])[n+](Cc3cnc(Cl)s3)c3c(C)cccn3c2=O)c1 [Compound 373]	≤ 40%				≥ 80%	
Cc1cccn2c(=O)c(-c3cccnc3Cl)c([O-])[n+](Cc3cnc(Cl)s3)c12 [Compound 419]	≤ 40%				≥ 80%	
Cc1ncc(C[n+]2c([O-])c(-c3ccccc3)c(=O)n3cccc(C)c32)s1 [Compound 478]	≤ 40%				≥ 80%	≥ 80%

— US8722690B2, “Mesoionic pesticides” (E I du Pont de Nemours and Company, priority 2009, dated 2014)
